Experimental data from paper PMC10992996.
Results are given in words; binding and its absence hold for the method and conditions named. In cells and extracts the contact can be indirect. Some binding calls cover weakened binding; strength is not graded here. For some assays here: Where a sequence is shown, tags or fusion partners need not be part of it.

By UniProt entry, the sequences of proteins in these tests, tags left out. Residues count along the entry.
UniProt Q5IJ48, residues 29-1285: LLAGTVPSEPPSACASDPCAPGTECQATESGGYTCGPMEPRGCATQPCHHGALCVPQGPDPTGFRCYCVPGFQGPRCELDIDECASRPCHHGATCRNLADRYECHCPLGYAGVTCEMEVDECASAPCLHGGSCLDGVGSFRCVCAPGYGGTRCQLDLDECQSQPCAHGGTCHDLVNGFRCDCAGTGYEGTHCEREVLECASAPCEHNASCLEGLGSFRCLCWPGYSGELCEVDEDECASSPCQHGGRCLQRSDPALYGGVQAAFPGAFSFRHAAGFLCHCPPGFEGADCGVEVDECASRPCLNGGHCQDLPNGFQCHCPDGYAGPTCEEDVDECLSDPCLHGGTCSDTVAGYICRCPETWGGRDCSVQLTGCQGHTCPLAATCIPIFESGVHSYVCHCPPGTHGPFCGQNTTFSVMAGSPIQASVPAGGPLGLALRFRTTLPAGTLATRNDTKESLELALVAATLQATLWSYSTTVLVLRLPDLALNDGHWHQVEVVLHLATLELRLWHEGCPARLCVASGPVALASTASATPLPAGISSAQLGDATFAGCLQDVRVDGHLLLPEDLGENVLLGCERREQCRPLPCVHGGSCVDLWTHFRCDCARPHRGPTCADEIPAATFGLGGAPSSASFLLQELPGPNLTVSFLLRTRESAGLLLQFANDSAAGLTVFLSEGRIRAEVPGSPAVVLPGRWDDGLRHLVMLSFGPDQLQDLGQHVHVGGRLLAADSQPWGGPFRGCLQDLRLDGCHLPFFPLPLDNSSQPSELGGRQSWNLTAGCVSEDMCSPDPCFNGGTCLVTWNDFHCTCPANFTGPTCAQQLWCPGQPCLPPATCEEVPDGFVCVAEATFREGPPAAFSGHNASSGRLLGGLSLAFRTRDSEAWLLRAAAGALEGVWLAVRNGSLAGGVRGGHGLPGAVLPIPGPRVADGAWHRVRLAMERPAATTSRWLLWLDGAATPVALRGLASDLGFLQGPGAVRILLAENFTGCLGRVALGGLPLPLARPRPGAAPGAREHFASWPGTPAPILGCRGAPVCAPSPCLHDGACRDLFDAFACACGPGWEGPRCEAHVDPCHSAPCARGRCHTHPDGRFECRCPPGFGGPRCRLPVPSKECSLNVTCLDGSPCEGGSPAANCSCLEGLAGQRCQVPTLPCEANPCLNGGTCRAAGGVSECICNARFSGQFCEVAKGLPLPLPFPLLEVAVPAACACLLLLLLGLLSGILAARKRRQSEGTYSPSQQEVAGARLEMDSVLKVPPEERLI

Legend:
[1] = target: T1, CRB1-FLAG p.C1321S (human) (UniProt P82279); test: co-IP; HEK293T cells co-transfected pairwise with a FLAG and an HA construct, 48 h; lysis in TBS (30 mM Tris-HCl pH 7.4, 150 mM NaCl) with 0.5% Nonidet P40; FLAG-IP on ANTI-FLAG M2 Affinity Gel 60-90 min at 4°C, elution with FLAG peptide; Western blot with HA and FLAG antibodies; for mutants HA/FLAG signal in eluates relative to WT, three biological replicates
T1 sequence: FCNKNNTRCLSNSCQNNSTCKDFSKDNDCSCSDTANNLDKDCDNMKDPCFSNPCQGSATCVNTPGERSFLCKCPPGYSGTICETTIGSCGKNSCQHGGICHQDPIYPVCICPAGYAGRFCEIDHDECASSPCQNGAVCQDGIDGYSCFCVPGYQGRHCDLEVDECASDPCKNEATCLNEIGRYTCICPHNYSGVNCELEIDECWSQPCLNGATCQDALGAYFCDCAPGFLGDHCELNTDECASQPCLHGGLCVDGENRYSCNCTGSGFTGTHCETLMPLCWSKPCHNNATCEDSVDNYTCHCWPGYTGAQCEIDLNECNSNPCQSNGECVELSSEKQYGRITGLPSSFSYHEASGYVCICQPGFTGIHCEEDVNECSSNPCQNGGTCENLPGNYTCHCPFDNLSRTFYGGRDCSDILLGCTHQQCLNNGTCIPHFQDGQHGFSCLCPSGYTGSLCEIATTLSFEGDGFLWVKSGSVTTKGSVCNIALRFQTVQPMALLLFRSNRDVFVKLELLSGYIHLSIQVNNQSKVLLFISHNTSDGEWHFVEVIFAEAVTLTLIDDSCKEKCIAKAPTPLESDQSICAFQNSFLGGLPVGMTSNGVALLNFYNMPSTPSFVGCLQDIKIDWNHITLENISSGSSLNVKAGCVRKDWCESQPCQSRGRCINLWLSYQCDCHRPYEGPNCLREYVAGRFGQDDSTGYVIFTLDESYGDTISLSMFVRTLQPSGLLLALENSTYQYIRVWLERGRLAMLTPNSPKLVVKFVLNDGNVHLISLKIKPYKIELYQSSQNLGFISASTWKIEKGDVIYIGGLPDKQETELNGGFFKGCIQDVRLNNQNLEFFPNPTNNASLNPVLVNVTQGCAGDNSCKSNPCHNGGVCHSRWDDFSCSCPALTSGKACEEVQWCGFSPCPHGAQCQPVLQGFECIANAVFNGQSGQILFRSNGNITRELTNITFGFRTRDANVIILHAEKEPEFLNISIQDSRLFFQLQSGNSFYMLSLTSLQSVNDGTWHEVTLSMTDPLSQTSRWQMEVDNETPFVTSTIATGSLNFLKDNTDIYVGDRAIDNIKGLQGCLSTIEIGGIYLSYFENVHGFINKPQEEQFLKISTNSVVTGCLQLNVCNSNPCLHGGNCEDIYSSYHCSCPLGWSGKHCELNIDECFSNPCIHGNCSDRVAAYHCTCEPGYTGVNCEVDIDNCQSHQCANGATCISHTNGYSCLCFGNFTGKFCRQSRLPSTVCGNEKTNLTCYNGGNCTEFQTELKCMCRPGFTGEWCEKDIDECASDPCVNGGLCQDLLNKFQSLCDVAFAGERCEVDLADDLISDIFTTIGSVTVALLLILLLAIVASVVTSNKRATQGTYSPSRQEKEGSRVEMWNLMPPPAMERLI

[2] = target: T2, Human CRB3 (Crumbs homolog 3) (human) (UniProt Q9BUF7); test: as above
T2 sequence: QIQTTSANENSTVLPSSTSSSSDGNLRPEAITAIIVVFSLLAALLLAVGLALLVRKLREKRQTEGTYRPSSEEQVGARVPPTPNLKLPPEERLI

binding [1]: binds
binding [2]: no binding
Substance: Human canonical CRB2 (Crumbs homolog 2) (from UniProt Q5IJ48-1 29-1285)
